In the test the target is Flag-tagged NQO1 (NAD(P)H quinone dehydrogenase 1), expressed in Mia-PaCa2 cells (UniProt P15559). The test can be described thus: affinity purification with mass spectrometry.

Amino acid sequences for entries named in this document (tags omitted).
UniProt P15559: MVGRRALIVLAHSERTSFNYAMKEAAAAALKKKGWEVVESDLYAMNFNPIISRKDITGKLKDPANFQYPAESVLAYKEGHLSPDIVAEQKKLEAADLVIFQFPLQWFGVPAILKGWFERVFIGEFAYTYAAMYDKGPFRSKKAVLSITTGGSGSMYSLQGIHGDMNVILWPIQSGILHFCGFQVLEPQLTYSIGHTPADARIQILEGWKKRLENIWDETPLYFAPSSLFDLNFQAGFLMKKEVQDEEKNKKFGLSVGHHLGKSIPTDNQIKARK

These are yes or no findings as the source states them, for the method shown. Binding seen in cells or lysates may run through a third protein. Here binding means that the protein was enriched with, or labelled near, the bait; the list need not be complete.

B1: G3BP2, endogenous in Mia-PaCa2 cells (protein, UniProt Q9UN86 1-482)
chain: MVMEKPSPLLVGREFVRQYYTLLNKAPEYLHRFYGRNSSYVHGGVDASGKPQEAVYGQNDIHHKVLSLNFSECHTKIRHVDAHATLSDGVVVQVMGLLSNSGQPERKFMQTFVLAPEGSVPNKFYVHNDMFRYEDEVFGDSEPELDEESEDEVEEEQEERQPSPEPVQENANSGYYEAHPVTNGIEEPLEESSHEPEPEPESETKTEELKPQVEEKNLEELEEKSTTPPPAEPVSLPQEPPKAFSWASVTSKNLPPSGTVSSSGIPPHVKAPVSQPRVEAKPEVQSQPPRVREQRPRERPGFPPRGPRPGRGDMEQNDSDNRRIIRYPDSHQLFVGNLPHDIDENELKEFFMSFGNVVELRINTKGVGGKLPNFGFVVFDDSEPVQRILIAKPIMFRGEVRLNVEEKKTRAARERETRGGGDDRRDIRRNDRGPGGPRGIVGGGMMRDRDGRGPPPRGGMAQKLGSGRGTGQMEGRFTGQRR
For B1, the binding result is reported as “binds”.

B2: TIA1, endogenous in Mia-PaCa2 cells (protein, UniProt P31483 1-386)
chain: MEDEMPKTLYVGNLSRDVTEALILQLFSQIGPCKNCKMIMDTAGNDPYCFVEFHEHRHAAAALAAMNGRKIMGKEVKVNWATTPSSQKKDTSSSTVVSTQRSQDHFHVFVGDLSPEITTEDIKAAFAPFGRISDARVVKDMATGKSKGYGFVSFFNKWDAENAIQQMGGQWLGGRQIRTNWATRKPPAPKSTYESNTKQLSYDEVVNQSSPSNCTVYCGGVTSGLTEQLMRQTFSPFGQIMEIRVFPDKGYSFVRFNSHESAAHAIVSVNGTTIEGHVVKCYWGKETLDMINPVQQQNQIGYPQPYGQWGQWYGNAQQIGQYMPNGWQVPAYGMYGQAWNQQGFNQTQSSAPWMGPNYGVQPPQGQNGSMLPNQPSGYRVAGYETQ
On to B2, for which the binding result is given as “binds”.

These data come from publication doi:10.1101/2025.09.25.678687.
